# For at least one entry, the source does not settle the construct or the ends of the probe. For part of these data: No signal at the amounts used counts as a negative.
# Protein sequences, listed by entry. Tags and fused reporters are not part of them. Lines headed by an entry give the natural chain unless they say otherwise; changes in a name come on top. Residues count along the entry.
# UniProt P48061: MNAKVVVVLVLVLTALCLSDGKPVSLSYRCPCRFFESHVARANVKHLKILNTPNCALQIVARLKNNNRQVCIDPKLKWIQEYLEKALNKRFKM
# UniProt P40224, 22-89: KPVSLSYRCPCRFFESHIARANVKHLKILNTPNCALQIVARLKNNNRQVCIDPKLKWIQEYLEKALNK
# Assays:
# [1] = target: SDF-1alpha (CXCL12) (Homo sapiens) (UniProt P48061); experiment: activity in cells; conditions: L-RNA, mirror-image nucleic acid
# [2] = target: SDF-1alpha (CXCL12) (Mus musculus) (UniProt P40224); experiment: activity in cells; conditions: L-RNA, purified recombinant protein, mirror-image nucleic acid, dose not given here
# [3] = target: SDF-1alpha (CXCL12) (Homo sapiens) (UniProt P48061); experiment: SPR; conditions: L-RNA, purified recombinant protein, mirror-image nucleic acid
# VEGF (VEGF165) = experiment: SPR; conditions: L-RNA, 5'-40 kDa PEG; no VEGF binding at the concentrations used; purified recombinant protein; mirror-image nucleic acid; variant of 193-G2-001 Spiegelmer
# [4] = target: SDF-1 (murine CXCL12) (Mus musculus) (UniProt P40224); experiment: activity in cells; conditions: L-RNA; 5'-30 kDa PEG; in vivo mouse HSC/HPC mobilization, 300 CD117+Ly-6A/E+ cells per uL vs 100 for vehicle; indirect; protein in cells; synthetic backbone; mirror-image nucleic acid; dose not given here
# [5] = 5'-40 kDa PEG, low nanomolar range, variant of 197-B2 Spiegelmer
# [6] = 5'-40 kDa PEG, inhibits Jurkat chemotaxis to 0.3 nM human SDF-1, synthetic backbone
sequence,measurement,setting,value
UAAGGAAACUCGGUCUGAUGCGGUAGCGCUGUGCAGAGCU [PEGylated Control Spiegelmer],functional effect of the aptamer,"[1]; 5'-PEG, stated not to bind SDF-1, no block of aortic ring sprouting at 1 uM, purified recombinant protein, variant of Control Spiegelmer",not active
CGCAUGGACUGAUCCUAGUCGGUUAUGUAGAUCUAGUGUGGUGCG [revNOX-A12-JE40],functional effect of the aptamer,"[2]; 5'-40 kDa PEG, stated no binding activity to SDF-1, no HSC/HPC mobilization in mice, variant of 193-G2-012-5'-PEG (NOX-A12-JE40)",not active
GCUGUGAAAGCAACAUGUCAAUGAAAGGUAGCCGCAGC [192-A10-001-5'-HES100],functional effect of the aptamer,"[1]; 5'-100 kDa HES, chemotaxis inhibition unchanged by HES, purified recombinant protein, variant of 192-A10-001 Spiegelmer, dose not given here",active
GCGUGGUGUGAUCUAGAUGUAUUGGCUGAUCCUAGUCAGGUACGC [193-G2-012-5'-PEG (NOX-A12-JE40)],binding result,"[3]; 5'-40 kDa PEG, low nanomolar range, variant of 193-G2-001 Spiegelmer",binds
same,binding result,VEGF (VEGF165),no binding
same,functional effect of the aptamer,"[1]; 5'-40 kDa PEG, inhibits Jurkat chemotaxis, also blocks SDF-1-induced aortic ring sprouting at 1 uM (p535), synthetic backbone",active
UAAGGAAACUCGGUCUGAUGCGGUAGCGCUGUGCAGAGCU [Control Spiegelmer],functional effect of the aptamer,"[1]; no inhibition of chemotaxis up to 1 uM, purified recombinant protein",not active
same,functional effect of the aptamer,[2]; no inhibition of chemotaxis to murine SDF-1,not active
CGCCGGGGUUAGGGCUAGAAGUCGGCCGGCG [197-B2-006-31b-5'-PEG],binding result,[3]; [5],binds
same,functional effect of the aptamer,[1]; [6],active
GCCGGGGUUAGGGCUAGAAGUCGGCCGGC [197-B2-006-5'-PEG],binding result,[3]; [5],binds
same,functional effect of the aptamer,[1]; [6],active
GCGUGAAAGCAACAUGUCAAUGAAAGGUAGCCGCGC [192-A10-008-5'-PEG],functional effect of the aptamer,[1]; [6],active
GCUGUGAAAGCAACAUGUCAAUGAAAGGUAGCCGCAGC [192-A10-001-5'-HES130],functional effect of the aptamer,"[1]; 5'-130 kDa HES, chemotaxis inhibition unchanged by HES, purified recombinant protein, variant of 192-A10-001 Spiegelmer, dose not given here",active
GCUGUGAAAGCAACAUGUCAAUGAAAGGUAGCCGCAGC [192-A10-001-5'-PEG40],functional effect of the aptamer,"[1]; 5'-40 kDa PEG, PEG has no influence on inhibition of chemotaxis, synthetic backbone, dose not given here",active
GCGUGGUGUGAUCUAGAUGUAUUGGCUGAUCCUAGUCAGGUACGC [NOX-A12-NO30],functional effect of the aptamer,[4],active
CGGGAGGUUAGGGCUAGAAGUCGGUCCCG [191-D5-007-5'-PEG],binding result,"[3]; 5'-40 kDa PEG, low nanomolar range, variant of 191-D5-007 Spiegelmer",binds
same,functional effect of the aptamer,[1]; [6],active
same,functional effect of the aptamer,"[2]; 5'-40 kDa PEG, inhibits murine SDF-1 chemotaxis with same potency as human, variant of 191-D5-007 Spiegelmer",active
AGCGUGGUGUGAUCUAGAUGUAGUGGCUGAUCCUAGUCAGGUACGCU [193-C2-001 Spiegelmer],binding result,[3],binds
GCGUGAAAGCAACAUGUCAAUGAAAGGUAGCCGCGC [192-A10-008 Spiegelmer],functional effect of the aptamer,"[1]; inhibits Jurkat chemotaxis to 0.3 nM human SDF-1, 37C, synthetic backbone",active
GCUGUGAAAGCAACAUGUCAAUGAAAGGUAGCCGCAGC [192-A10-001-5'-PEG30],functional effect of the aptamer,"[1]; 5'-30 kDa PEG, chemotaxis inhibition unchanged by PEG, purified recombinant protein, variant of 192-A10-001 Spiegelmer, dose not given here",active
GCUGUGAAAGCAACAUGUCAAUGAAAGGUAGCCGCAGC [192-A10-001 Spiegelmer],functional effect of the aptamer,[2]; inhibits murine SDF-1 chemotaxis with same potency as human,active
UGAGAUAGGGGUUAGGGCUUAAAGUCGGCUGAUUCUCA [190-A3-003 Spiegelmer],binding result,[3],binds

# — patent publication US20110223127
